From publication PMC7842083 (Molecular pharmaceutics, 2020)
Read-outs that look alike come from different tables or passages of the source.

Assays:
in vitro = details: pH 6
in vivo = details: female, po; for Kp at 10 min: 30 mg/kg
[1] = oral gavage (caffeine 5, diazepam 30 mg/kg), mean ± SD, n=3
[2] = APP/PS1 (B6C3-Tg (APPswe, PSEN1dE9)85Dbo/Mmjax), mouse
[3] = WT littermates of APP/PS1, mouse

CN1C(=O)CN=C(c2ccccc2)c2cc(Cl)ccc21 [Diazepam, diazepam]
Papp at 120 min, 0.1 µCi/mL (in vitro; APP/PS1, mouse): 34.1 ± 9.2 ×10⁻⁶ cm/s
Papp at 120 min (in vitro; WT, mouse): 29.1 ± 9.7 ×10⁻⁶ cm/s
Kp (in vivo; [2]): 0.18 to 0.81
Kp at 10 min (in vivo; [2]): 0.18 ± 0.05
Kp (in vivo; [3]): 0.31 to 1.07
Kp at 10 min (in vivo; [3]): 0.31 ± 0.07
AUCbrain ([1]; APP/PS1 mice): 117.7 ± 18.2 ng·h/g
AUCbrain ([1]; WT mice): 119.5 ± 5.5 ng·h/g
